At least one structure is not confirmed: it was looked up by name or label, or the drawing left a doubt. Some entries share one result that the patent states for a list of compounds. Some compounds share one range, which may span the group rather than tell each member.
What was measured:
[1] = system: C2-4B MDVR cells; assay: Mitochondrial oxygen consumption rate (OCR), Seahorse XF analyzer; assay type: cell-based, human; conditions: within 600-800 minutes; DZ1 6 μM, Chole 20 μM
[2] = system: human cancer cell lines; assay: MTT cell viability, summary over the cancer cell lines; assay type: cell-based; conditions: summary of the table of IC50
Experimental: Example 7: The experiment is performed by cell assay essentially as described above in example 4. […]
The cell lines are cultured according to the protocols as described above, then each of the cell lines are treated for 48 h either with an ELSD (here of formula FId, “DZ2b” or compound 14) or with an ALSD (here of formula FIId, “DZ2a” or compound 7). For each cell line, the IC50 is determined for each drug, i.e. the ELSD, the ALSD, and for the corresponding unconjugated statin (Simvastatin), in concentrations from 0.1-100 μM.
In the controls (not shown in the figures), the cells are exposed to DMSO (vehicle) for a final concentration that equals the highest concentration of the drug tested, to a maximum concentration less than 0.1% v/v. […] The absorbance density of the supernatant is read on a 96-well microplate reader at wavelength 595 nm.

[3] = system: 22Rv1 human prostate carcinoma tumors; assay: Tumor volume of 22Rv1 tumors grown subcutaneously in mice; assay type: in vivo; conditions: 5 mg/kg, intravenously injected; listed as SIM
Experimental: Example 1D: 22Rv1 human prostate carcinoma cells are cultured as described above, separated from the medium, resuspended in 50% phosphate buffered saline (PBS) and 50% BD Matrigel™ (BD Biosciences, CA), and then the re-suspended cells are injected and grown subcutaneously in mice. […] The decrease of the THSD in the tumors at 2 and 4 weeks, respectively, as determined by NIR signal, is less than about 30%.
Example 1E: 22Rv1 human prostate carcinoma cells are cultured, injected and grown subcutaneously in mice as described above in example 1D. Tumor volume is monitored by measuring the size by caliper and calculating volume as described in example 9 below. The mice are intravenously injected with the following: ALSD of formula FIId, “DZ2a”, compound 7, the corresponding unconjugated dye (here: DZ1), unconjugated Simvastatin, a statin drug (SIM), and docetaxel (DOC), a cancer drug, and a mixture of the ALSD with DOC. Each active was administered in an amount of 5 mg/kg for the ALSD, DZ1, and SIM, except, in case of DOC, 8 mg/kg. A slower rate of increased tumor volume indicates tumor suppressive activity.

[4] = system: H446 human small cell lung cancer (SCLC) cells; assay: Mouse xenograft model, H446 SCLC; assay type: in vivo, mice; conditions: 2 mg/kg, twice a week via i.p. injection, 52 days
Experimental: Example 10: THSD (ALSD and ELSD, respectively) are tested in vivo in a mouse xenograft model for human lung cancer. The example is essentially performed as described for example 9 with the following modifications: human SCLC H446 cancer cells are used, and the tested agents include two statin conjugates (compounds of formula FId/compound 14 or “DZ2b” and FIId/compound 7 or “DZ2a”, respectively, designated “DZ-SIM-Ester” or “DZ-SIM-Amide” in FIG. 10), and a non-statin conjugate (“DZ-DHA”). SCLC H446 cells (1.5×10^6) are subcutaneously implanted on the bilateral flanks of athymic nude mice at age of 5 weeks. 10 days post cell implantation, mice are treated with DZ1 (2.8 mg/kg), SIM (2 mg/kg), DZ1-SIM-Amide/compound 7 or DZ1-SIM-Ester/compound 14 (4 mg/kg), and DZ1-DHA (4 mg/kg, DZ1-dihydroartemisinin ester “DZ1-DHA”, as shown in FIG. 11), twice a week via i.p. injection. (A) Tumor sizes are measured by caliper every four days during the treatment period of 52 days, and volumes are calculated using formula […] as described in example 9 above. Confidence levels are indicated as *P<0.05, **P<0.01, ***P<0.0005.

[5] = system: 22Rv1 cancer cells; assay: Western blot for polyubiquitinated proteins; assay type: cell-based, human; conditions: anti-ubiquitin antibody
Experimental: Example 3D: Proteins are denatured and separated as described in example 3C; on the membrane a western blot is performed using an antibody that targets ubiquitin for detection of polyubiquitinated proteins; the probes include a molecular weight marker (“Marker”), DMSO (vehicle which serves as a control), an unconjugated statin (Simvastatin), an unconjugated dye (DZ1), and the THSD (here ALSD of formula FIId, “DZ2a”, compound 7). […] Thus it is shown that THSD prevent the removal of polyubiquitinated proteins by cancer cells through altered autophagic processes which involve defective lysosomal functions.

SMILES | oxygen consumption rate (OCR) [1] [pmol/min] | range of IC50 over the cancer cell lines [2] | tumor suppressive activity (tumor volume increase) [3] | mean tumor volume / growth inhibition [4] | ubiquitin signal (polyubiquitinated proteins) [5]
CC(C)CCC[C@@H](C)[C@H]1CC[C@H]2[C@@H]3CC=C4C[C@@H](O)CC[C@]4(C)[C@H]3CC[C@]12C [Cholesterol] | 650 to 950 | – | – | – | –
CC1(C)C(/C=C/C2=C(Cl)C(=C/C=C3/N(CCCCCC(=O)O)c4ccccc4C3(C)C)/CCC2)=[N+](CCCCS(=O)(=O)[O-])c2ccccc21 [DZ1] | 650 to 950 | – | – | – | –
CCC(C)(C)C(=O)O[C@H]1C[C@@H](C)C=C2C=C[C@H](C)[C@H](CC[C@@H]3C[C@@H](O)CC(=O)O3)[C@H]21 [Simvastatin] | 650 to 950 | 15 to about >50 | no significant tumor suppressive activity | steep increase in tumor volume | much weaker signals and less of a smear

Source: patent US20230116399A1, “Tumor Homing Statin Derivatives” (Da Zen Theranostics, Inc., priority 2019, published 2023)
